Results are given in words; binding and its absence hold for the method and conditions named. Binding seen in cells or lysates may run through a third protein. Some results given as binding are weak or reduced against the parent protein; the word gives no strength. For some assays here: Where a sequence is shown, tags or fusion partners need not be part of it.
Assays:
[1] = target: IKKγ (mouse (endogenous in BMDMs)) (UniProt O88522); experiment: co-IP; wild-type or PTPN14-deficient BMDMs, with or without Socs7 siRNA, stimulated with 1 μg/mL LPS and 5 mM D-GalN for 24 h; lysates with antibodies and Protein A/G beads overnight at 4 °C
[2] = target: T1, HA-labeled PTPN14 (protein tyrosine phosphatase non-receptor type 14) (mouse) (UniProt Q62130); experiment: co-IP; HA-labeled PTPN14 and Myc-labeled SOCS7 transfected into HEK293T cells; RIPA lysates incubated with antibodies and Protein A/G beads overnight at 4 °C, immunoblot
T1 sequence: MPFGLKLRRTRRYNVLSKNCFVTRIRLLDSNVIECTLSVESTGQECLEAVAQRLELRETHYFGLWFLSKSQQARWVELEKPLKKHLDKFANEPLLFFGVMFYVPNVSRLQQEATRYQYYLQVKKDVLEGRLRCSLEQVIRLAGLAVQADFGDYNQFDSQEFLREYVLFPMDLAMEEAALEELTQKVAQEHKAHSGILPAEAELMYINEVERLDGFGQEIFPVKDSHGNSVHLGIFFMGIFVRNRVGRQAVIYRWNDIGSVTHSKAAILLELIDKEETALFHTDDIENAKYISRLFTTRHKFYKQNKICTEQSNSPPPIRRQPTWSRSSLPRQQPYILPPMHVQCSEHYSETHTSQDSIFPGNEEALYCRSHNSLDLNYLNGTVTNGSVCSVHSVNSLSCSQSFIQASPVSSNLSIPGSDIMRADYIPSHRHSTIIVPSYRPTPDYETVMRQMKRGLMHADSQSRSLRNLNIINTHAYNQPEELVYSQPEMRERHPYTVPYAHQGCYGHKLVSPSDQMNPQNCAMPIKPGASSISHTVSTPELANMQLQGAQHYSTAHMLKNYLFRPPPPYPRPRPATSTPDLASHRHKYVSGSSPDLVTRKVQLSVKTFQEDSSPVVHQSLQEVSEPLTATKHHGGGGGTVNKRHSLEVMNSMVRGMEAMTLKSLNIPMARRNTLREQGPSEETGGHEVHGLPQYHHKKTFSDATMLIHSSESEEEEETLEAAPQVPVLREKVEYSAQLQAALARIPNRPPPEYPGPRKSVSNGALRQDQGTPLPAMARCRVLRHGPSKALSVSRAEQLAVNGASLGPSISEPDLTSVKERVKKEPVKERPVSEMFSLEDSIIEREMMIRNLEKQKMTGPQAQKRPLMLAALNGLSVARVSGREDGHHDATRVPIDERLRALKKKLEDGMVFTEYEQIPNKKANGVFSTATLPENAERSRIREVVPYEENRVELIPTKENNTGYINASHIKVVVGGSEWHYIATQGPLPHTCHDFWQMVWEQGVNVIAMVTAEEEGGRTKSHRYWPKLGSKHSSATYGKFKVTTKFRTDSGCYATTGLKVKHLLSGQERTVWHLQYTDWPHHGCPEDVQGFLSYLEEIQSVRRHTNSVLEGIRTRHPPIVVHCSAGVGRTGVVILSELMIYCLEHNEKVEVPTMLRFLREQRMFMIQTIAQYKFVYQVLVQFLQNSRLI

By UniProt entry, the sequences of proteins in these tests, tags left out.
UniProt O88522: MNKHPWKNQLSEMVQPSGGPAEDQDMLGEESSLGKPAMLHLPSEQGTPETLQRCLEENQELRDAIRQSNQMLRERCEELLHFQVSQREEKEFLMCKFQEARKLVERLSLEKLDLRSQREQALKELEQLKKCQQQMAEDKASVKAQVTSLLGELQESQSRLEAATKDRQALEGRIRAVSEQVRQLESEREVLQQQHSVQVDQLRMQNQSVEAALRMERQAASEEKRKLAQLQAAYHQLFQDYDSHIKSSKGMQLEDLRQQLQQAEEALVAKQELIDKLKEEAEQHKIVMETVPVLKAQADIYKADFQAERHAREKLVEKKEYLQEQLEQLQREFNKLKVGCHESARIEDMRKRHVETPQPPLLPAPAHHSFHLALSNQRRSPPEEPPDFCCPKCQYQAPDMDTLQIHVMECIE

GST-PTPN14 (mouse) = target: T2, GST-PTPN14 (mouse) (UniProt Q62130); experiment: pull-down; GST pulldown assay in vitro
T2 sequence: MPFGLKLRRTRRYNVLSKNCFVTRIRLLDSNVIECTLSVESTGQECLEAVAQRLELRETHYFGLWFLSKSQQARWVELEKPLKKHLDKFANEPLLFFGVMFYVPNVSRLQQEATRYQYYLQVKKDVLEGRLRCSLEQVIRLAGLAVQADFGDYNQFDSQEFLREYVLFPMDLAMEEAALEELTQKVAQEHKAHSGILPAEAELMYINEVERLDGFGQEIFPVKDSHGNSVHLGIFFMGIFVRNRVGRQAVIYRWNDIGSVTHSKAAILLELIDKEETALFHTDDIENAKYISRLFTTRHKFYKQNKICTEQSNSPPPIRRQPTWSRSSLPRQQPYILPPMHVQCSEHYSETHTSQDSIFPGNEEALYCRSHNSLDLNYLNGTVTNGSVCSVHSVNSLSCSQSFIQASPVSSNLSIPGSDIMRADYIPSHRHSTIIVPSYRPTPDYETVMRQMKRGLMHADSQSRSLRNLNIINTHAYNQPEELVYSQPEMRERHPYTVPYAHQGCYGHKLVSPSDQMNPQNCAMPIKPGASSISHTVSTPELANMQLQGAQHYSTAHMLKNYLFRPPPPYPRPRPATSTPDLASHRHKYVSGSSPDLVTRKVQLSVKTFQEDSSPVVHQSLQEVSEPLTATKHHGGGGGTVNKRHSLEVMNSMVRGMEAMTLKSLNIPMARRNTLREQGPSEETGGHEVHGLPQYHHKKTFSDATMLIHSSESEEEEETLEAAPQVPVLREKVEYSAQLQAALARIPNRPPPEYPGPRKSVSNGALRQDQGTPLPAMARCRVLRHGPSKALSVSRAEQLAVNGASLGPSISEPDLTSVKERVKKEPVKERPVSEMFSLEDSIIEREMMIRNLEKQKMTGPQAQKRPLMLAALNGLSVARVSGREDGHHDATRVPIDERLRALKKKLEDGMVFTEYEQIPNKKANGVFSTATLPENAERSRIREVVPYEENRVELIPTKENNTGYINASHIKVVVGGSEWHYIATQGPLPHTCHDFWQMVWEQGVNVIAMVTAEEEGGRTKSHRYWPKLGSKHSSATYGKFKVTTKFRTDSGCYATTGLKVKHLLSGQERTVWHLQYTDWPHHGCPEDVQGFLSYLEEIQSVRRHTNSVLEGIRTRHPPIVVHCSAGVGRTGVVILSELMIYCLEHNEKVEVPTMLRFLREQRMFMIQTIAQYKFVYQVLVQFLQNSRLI

B1: IKKα (protein, UniProt Q60680 1-745)
chain: MERPPGLRPGAGGPWEMRERLGTGGFGNVSLYQHRELDLKIAIKSCRLELSSKNRERWCHEIQIMKKLDHANVVKACDVPEELNFLINDVPLLAMEYCSGGDLRKLLNKPENCCGLKESQILSLLSDIGSGIRYLHENKIIHRDLKPENIVLQDVGGKTIHKIIDLGYAKDVDQGSLCTSFVGTLQYLAPELFENKPYTATVDYWSFGTMVFECIAGYRPFLHHLQPFTWHEKIKKKDPKCIFACEEMTGEVRFSSHLPQPNSLCSLIVEPMESWLQLMLNWDPQQRGGPIDLTLKQPRCFALMDHILNLKIVHILNMTSAKIISFLLPCDESLHSLQSRIERETGINTGSQELLSETGISLDPRKPASQCVLDGVRGCDSYMVYLFDKSKTVYEGPFASRSLSDCVNYIVQDSKIQLPIIQLRKVWAEAVHYVSGLKEDYSRLFQGQRAAMLSLLRYNANLTKMKNTLISASQQLKAKLEFFRKSIQLDLERYSEQMTYGISSEKMLKAWKEMEEKAIHYSEVGVIGYLEDQIMSLHTEIMELQKSPYGRRQGDLMESLEQRAIDLYKQLKHRPPDHLYSDSTEMVKIIVHTVQSQDRVLKELFGHLSKLLGCKQKIIDLLPKVEVALSNIKEADNTVMFMQGKRQKEIWHLLKIACTQSSARSLVGSSLEGTVTPPVSAWLPPTLADREHPLTCVVTPQDGETLAQMIEENLNCLGHLSTIIREANEDQSSSLMSLDWSWLAE
In the case of B1, the binding [1] is reported as “binds”.

B2: IKKβ (protein, UniProt O88351 1-757)
chain: MSWSPSLPTQTCGAWEMKERLGTGGFGNVIRWHNQATGEQIAIKQCRQELSPKNRNRWCLEIQIMRRLNHPNVVAARDVPEGMQNLAPNDLPLLAMEYCQGGDLRRYLNQFENCCGLREGAVLTLLSDIASALRYLHENRIIHRDLKPENIVLQQGEKRLIHKIIDLGYAKELDQGSLCTSFVGTLQYLAPELLEQQKYTVTVDYWSFGTLAFECITGFRPFLPNWQPVQWHSKVRQKSEVDIVVSEDLNGAVKFSSSLPFPNNLNSVLAERLEKWLQLMLMWHPRQRGTDPQYGPNGCFRALDDILNLKLVHVLNMVTGTVHTYPVTEDESLQSLKTRIQENTGILETDQELLQKAGLVLLPDKPATQCISDSKTNEGLTLDMDLVFLLDNSKINYETQITPRPPPESVSCILQEPKRNLSFFQLRKVWGQVWHSIQTLKEDCNRLQQGQRAAMMSLLRNNSCLSKMKNAMASTAQQLKAKLDFFKTSIQIDLEKYKEQTEFGITSDKLLLAWREMEQAVEQCGRENDVKHLVERMMALQTDIVDLQRSPMGRKQGGTLDDLEEQARELYRKLREKPRDQRTEGDSQEMVRLLLQAIQSFEKKVRVIYTQLSKTVVCKQKALELLPKVEEVVSLMNEDERTVVRLQEKRQKELWNLLKIACSKVRGPVSGSPDSMNVSRLSHPGQLMSQPSSACDSLPESDKKSEELVAEAHALCSRLESALQDTVKEQDRSFTTLDWSWLQMEDEERCSLEQACD
With B2 the binding [1] was “binds”.

B3: Myc-labeled SOCS7 (suppressor of cytokine signaling 7) (protein, UniProt Q8VHQ2 1-579)
chain: MVFRNVGRPPEEEDAEAAREPGPSELLCPRHRCALDPKALPPGLALERTWGPVAGLEAQLAALGLGQPAGPGIKTAGGGCCPCPCPPQPPPPQPPPPAAAPQAGEDPTETSDALLVLEGLESEAESLETNSCSEEELSSPGRGGGGVGGRLLLQPPGPELPPVPFPLQDLVPPGRLSRGEQQQQQPPPPPPPPGPLRPLAGPSRKGSFKIRLSRLFRTKSCNGGSGGGDGTGKRPSGDLAASAASLTDMGGSAVRELDTGRKPRLTRTQSAFSPVSFSPLFTGETVSLVDVDISQRGLTSPHPPTPPPPPRRSLSLLDDISGTLPTSVLVAPMGSSLQSFPLPPPPPPHAPDAFPRIAPIRASESLHSQPPQHLQCPLYRPDSSSFAASLRELEKCGWYWGPMNWEDAEMKLKGKPDGSFLVRDSSDPRYILSLSFRSQGITHHTRMEHYRGTFSLWCHPKFEDRCQSVVEFIKRAIMHSKNGKFLYFLRSRVPGLPPTPVQLLYPVSRFSNVKSLQHLCRFRIRQLVRIDHIPDLPLPKPLISYIRKFYYYDPQEEVYLSLKEAQLISKQKQEVEPST
B3 was tested, and the binding [2] was “binds”.

B4: SOCS7 of the GST pulldown assay (protein, UniProt Q8VHQ2 1-579)
chain: MVFRNVGRPPEEEDAEAAREPGPSELLCPRHRCALDPKALPPGLALERTWGPVAGLEAQLAALGLGQPAGPGIKTAGGGCCPCPCPPQPPPPQPPPPAAAPQAGEDPTETSDALLVLEGLESEAESLETNSCSEEELSSPGRGGGGVGGRLLLQPPGPELPPVPFPLQDLVPPGRLSRGEQQQQQPPPPPPPPGPLRPLAGPSRKGSFKIRLSRLFRTKSCNGGSGGGDGTGKRPSGDLAASAASLTDMGGSAVRELDTGRKPRLTRTQSAFSPVSFSPLFTGETVSLVDVDISQRGLTSPHPPTPPPPPRRSLSLLDDISGTLPTSVLVAPMGSSLQSFPLPPPPPPHAPDAFPRIAPIRASESLHSQPPQHLQCPLYRPDSSSFAASLRELEKCGWYWGPMNWEDAEMKLKGKPDGSFLVRDSSDPRYILSLSFRSQGITHHTRMEHYRGTFSLWCHPKFEDRCQSVVEFIKRAIMHSKNGKFLYFLRSRVPGLPPTPVQLLYPVSRFSNVKSLQHLCRFRIRQLVRIDHIPDLPLPKPLISYIRKFYYYDPQEEVYLSLKEAQLISKQKQEVEPST
In the case of B4, the binding (GST-PTPN14 (mouse)) is reported as “binds”.

B5: SOCS7 in bone marrow-derived macrophages (protein, UniProt Q8VHQ2 1-579)
chain: MVFRNVGRPPEEEDAEAAREPGPSELLCPRHRCALDPKALPPGLALERTWGPVAGLEAQLAALGLGQPAGPGIKTAGGGCCPCPCPPQPPPPQPPPPAAAPQAGEDPTETSDALLVLEGLESEAESLETNSCSEEELSSPGRGGGGVGGRLLLQPPGPELPPVPFPLQDLVPPGRLSRGEQQQQQPPPPPPPPGPLRPLAGPSRKGSFKIRLSRLFRTKSCNGGSGGGDGTGKRPSGDLAASAASLTDMGGSAVRELDTGRKPRLTRTQSAFSPVSFSPLFTGETVSLVDVDISQRGLTSPHPPTPPPPPRRSLSLLDDISGTLPTSVLVAPMGSSLQSFPLPPPPPPHAPDAFPRIAPIRASESLHSQPPQHLQCPLYRPDSSSFAASLRELEKCGWYWGPMNWEDAEMKLKGKPDGSFLVRDSSDPRYILSLSFRSQGITHHTRMEHYRGTFSLWCHPKFEDRCQSVVEFIKRAIMHSKNGKFLYFLRSRVPGLPPTPVQLLYPVSRFSNVKSLQHLCRFRIRQLVRIDHIPDLPLPKPLISYIRKFYYYDPQEEVYLSLKEAQLISKQKQEVEPST
B5 was tested, and the binding [1] was “binds”.

From PMC7519157
